Results: article PMC10115415
The exact form of at least one protein or probe is not confirmed. Where a protein sequence is shown, tags need not be part of it.

Columns and labels:
[1] = biological target: T1, Cyp33-WLF (RRM) W101A,L102A,F105A (human) (UniProt Q9UNP9); test: NMR titration; details: NMR titrations: 20 mM KHPO4 pH 7, 40 mM KCl, 1 mM DTT; recombinant protein; residues 1-114; protein details: AGH N-terminal after intein cleavage
T1 sequence (looked up): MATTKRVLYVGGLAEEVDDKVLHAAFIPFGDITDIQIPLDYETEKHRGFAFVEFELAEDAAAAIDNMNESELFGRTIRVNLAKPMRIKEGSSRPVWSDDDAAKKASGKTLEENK

[2] = biological target: T1, Cyp33-WLF (RRM) W101A,L102A,F105A (human); test: ITC; details: structures of complexes: 40 mM KCl, 20 mM KH2PO4 pH 7.0, 310.15 K; recombinant protein; residues 1-114; protein details: AGH N-terminal after intein cleavage

Sequence UAAUGU [UAAUGU RNA] has a Kd [1] of 80 µM and a Kd [2] of 70 µM.
